Reference: paper PMC11705415
Results are given in words; binding and its absence hold for the method and conditions named. Binding seen in cells or lysates may run through a third protein. Some binding calls cover weakened binding; strength is not graded here. For part of these data: Where a sequence is shown, tags or fusion partners need not be part of it.

By UniProt entry, the sequences of proteins in these tests, tags left out. Where a name states a change or a piece, a line headed by the entry shows the natural chain unless it says otherwise.
UniProt P28740: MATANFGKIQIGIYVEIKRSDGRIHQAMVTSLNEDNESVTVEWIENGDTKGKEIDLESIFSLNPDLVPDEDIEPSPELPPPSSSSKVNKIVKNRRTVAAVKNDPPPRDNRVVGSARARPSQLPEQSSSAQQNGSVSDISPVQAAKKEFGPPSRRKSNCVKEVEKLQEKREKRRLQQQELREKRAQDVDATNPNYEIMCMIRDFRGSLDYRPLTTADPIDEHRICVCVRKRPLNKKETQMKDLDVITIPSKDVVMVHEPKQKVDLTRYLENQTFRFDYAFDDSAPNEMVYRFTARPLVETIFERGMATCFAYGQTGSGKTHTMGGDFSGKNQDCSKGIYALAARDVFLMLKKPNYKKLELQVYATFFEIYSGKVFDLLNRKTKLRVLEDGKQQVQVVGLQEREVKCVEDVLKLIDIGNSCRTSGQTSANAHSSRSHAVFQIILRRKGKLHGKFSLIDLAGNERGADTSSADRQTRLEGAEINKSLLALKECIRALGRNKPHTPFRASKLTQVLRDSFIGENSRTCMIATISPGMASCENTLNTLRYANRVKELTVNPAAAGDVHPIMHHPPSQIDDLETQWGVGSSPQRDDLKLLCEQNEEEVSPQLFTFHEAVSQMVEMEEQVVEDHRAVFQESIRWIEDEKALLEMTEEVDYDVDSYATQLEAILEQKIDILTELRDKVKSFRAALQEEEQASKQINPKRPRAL
UniProt P62069: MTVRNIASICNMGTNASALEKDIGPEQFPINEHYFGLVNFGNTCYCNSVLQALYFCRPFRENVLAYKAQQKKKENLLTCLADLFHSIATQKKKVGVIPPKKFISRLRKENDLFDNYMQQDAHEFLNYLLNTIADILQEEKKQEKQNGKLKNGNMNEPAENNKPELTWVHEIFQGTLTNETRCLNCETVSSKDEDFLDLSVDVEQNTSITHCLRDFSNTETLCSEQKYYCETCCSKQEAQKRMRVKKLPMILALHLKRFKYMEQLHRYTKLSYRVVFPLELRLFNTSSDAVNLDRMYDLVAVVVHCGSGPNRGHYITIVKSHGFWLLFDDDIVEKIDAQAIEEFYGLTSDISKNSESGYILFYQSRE

Experiments:
Test in all cases: split reporter; BiFC: VN155(I152L)-USP46 and VC155-tagged protein co-expressed in Neuro2a cells, fixed after 24 h, fluorescence of reconstituted Venus by microscopy
VC-tagged SNAP29 = molecular target: T1, VC-tagged SNAP29 (UniProt Q9ERB0)
T1 sequence: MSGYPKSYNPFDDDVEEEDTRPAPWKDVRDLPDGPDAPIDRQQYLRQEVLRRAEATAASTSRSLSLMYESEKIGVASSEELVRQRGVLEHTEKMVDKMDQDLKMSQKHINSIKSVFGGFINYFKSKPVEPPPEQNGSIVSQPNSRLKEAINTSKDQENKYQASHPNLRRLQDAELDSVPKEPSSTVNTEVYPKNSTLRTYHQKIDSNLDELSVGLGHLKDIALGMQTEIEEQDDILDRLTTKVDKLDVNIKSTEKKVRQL

VC-tagged HOOK3 = molecular target: T2, VC-tagged HOOK3 (UniProt Q8BUK6)
T2 sequence: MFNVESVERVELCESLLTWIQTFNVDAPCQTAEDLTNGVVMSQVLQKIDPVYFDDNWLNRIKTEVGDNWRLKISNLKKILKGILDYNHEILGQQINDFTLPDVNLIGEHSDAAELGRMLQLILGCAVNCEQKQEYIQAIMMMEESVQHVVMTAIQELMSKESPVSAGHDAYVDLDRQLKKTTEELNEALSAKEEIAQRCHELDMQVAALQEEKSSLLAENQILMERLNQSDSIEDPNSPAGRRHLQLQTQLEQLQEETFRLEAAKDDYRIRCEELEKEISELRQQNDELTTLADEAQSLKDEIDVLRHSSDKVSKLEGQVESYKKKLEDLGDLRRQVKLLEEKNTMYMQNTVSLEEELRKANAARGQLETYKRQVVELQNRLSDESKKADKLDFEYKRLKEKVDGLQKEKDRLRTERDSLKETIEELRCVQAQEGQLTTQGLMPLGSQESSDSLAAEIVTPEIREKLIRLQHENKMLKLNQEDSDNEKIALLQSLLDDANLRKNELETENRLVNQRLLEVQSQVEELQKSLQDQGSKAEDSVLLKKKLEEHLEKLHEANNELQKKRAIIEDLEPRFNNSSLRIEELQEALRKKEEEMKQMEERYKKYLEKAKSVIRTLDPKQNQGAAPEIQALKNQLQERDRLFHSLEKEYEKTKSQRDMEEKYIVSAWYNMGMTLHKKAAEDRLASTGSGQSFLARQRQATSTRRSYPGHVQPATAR

VC-tagged HAP1 = molecular target: T3, VC-tagged HAP1 (UniProt O35668)
T3 sequence: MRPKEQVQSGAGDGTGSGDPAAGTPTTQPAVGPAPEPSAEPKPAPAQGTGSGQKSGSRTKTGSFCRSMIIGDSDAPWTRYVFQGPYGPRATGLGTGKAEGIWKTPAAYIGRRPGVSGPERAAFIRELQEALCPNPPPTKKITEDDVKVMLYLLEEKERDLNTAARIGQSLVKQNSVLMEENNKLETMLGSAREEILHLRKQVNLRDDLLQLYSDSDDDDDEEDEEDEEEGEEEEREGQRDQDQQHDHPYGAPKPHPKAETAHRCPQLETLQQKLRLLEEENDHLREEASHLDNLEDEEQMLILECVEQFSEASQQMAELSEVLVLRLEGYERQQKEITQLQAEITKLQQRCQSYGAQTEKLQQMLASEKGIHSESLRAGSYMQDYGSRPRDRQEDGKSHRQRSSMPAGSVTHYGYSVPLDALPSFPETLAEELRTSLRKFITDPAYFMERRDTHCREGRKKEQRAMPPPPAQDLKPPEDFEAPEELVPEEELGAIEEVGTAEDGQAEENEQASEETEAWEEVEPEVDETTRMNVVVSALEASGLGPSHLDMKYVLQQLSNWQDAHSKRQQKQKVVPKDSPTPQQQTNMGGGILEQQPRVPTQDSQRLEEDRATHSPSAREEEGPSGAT

VC-tagged AHI1 = molecular target: T4, VC-tagged AHI1 (UniProt Q8K3E5)
T4 sequence: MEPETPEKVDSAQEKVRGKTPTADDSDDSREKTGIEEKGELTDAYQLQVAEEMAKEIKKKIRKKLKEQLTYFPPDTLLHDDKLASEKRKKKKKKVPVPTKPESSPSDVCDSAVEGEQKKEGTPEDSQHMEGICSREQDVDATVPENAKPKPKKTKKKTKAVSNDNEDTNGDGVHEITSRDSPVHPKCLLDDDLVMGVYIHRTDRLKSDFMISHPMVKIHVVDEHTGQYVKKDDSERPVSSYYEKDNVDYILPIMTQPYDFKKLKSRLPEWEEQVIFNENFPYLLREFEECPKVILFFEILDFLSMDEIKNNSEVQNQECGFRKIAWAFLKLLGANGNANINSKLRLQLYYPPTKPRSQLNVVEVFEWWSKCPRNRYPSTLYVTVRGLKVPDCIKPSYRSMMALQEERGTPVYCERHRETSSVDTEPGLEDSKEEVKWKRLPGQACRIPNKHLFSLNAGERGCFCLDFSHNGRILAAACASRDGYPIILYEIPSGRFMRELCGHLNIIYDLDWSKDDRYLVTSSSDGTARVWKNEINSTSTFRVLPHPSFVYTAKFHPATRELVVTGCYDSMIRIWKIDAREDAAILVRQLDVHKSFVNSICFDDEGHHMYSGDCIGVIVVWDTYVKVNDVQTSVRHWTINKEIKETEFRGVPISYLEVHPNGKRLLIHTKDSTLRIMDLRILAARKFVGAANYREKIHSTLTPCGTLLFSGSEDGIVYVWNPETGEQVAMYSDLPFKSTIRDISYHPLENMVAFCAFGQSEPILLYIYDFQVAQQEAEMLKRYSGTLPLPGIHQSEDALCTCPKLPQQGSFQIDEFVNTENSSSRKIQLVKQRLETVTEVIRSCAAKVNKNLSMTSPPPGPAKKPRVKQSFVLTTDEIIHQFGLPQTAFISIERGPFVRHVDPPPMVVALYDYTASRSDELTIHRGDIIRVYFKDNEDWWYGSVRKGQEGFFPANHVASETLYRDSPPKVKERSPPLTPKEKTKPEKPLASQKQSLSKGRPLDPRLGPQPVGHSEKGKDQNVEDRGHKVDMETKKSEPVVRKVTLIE

VC-tagged SIRT2 = molecular target: T5, VC-tagged SIRT2 (UniProt Q8VDQ8)
T5 sequence: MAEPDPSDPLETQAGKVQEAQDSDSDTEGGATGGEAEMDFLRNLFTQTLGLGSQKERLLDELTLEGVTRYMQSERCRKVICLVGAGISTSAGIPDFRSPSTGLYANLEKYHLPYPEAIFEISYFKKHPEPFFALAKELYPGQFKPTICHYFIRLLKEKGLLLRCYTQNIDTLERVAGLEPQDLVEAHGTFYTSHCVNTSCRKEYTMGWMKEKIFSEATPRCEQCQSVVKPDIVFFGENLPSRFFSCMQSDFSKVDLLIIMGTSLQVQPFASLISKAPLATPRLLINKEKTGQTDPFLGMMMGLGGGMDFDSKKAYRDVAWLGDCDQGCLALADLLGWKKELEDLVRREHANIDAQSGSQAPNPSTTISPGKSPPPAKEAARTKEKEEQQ

VC-tagged KIF2A = VC-tagged KIF2A (UniProt P28740)

Measured: binding

USP46 fused with the N-terminal fragment of Venus (VN155, I152L) (from UniProt P62069 1-366) (enzyme)
binds: all assays above
